Data taken from PubChem BioAssay AID529 (NMMLSC, 2006).
Hit rate of the full screen: of about 24,000 compounds, about 50 (0.2%) were called active. The shares of active, inactive and inconclusive entries below differ from those in the screen.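 How the source made its calls: active means inhibition above 50%; inconclusive means compound itself fluorescent, judged against control cell fluorescence; inactive means the rest.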

Chains of the proteins cited; added tags and fusions are not shown.
UniProt P13612, whole entry, looked up: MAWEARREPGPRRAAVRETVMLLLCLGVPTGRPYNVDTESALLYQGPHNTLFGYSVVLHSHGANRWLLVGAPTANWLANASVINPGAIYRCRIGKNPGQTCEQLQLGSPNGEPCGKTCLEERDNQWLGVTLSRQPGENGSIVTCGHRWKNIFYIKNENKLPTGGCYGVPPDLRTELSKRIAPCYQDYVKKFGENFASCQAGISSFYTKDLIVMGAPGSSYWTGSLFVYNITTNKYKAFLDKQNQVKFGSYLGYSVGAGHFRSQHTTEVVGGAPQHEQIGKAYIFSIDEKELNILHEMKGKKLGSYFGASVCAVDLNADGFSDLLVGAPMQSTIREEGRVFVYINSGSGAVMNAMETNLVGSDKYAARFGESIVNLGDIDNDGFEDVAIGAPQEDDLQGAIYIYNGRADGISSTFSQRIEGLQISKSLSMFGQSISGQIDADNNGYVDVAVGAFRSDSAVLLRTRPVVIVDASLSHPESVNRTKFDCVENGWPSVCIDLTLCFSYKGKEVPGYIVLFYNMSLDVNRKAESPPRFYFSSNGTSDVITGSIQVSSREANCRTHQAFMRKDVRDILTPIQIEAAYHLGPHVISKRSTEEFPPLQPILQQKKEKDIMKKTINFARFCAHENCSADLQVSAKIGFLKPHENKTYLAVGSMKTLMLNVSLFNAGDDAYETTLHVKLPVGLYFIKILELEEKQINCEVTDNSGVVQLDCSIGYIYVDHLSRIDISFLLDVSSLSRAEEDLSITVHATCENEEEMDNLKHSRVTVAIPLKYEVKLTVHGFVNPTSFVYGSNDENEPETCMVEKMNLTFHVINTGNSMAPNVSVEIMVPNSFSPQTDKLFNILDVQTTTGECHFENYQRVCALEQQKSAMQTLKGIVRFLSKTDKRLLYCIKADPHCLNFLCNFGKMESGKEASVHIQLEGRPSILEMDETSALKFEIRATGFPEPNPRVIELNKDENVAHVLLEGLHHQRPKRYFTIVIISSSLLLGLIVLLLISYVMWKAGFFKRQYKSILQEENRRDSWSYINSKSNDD

Biological target: Integrin alpha-4 (Homo sapiens) (UniProt P13612)
Experiment: blockers of LDV-FITC ligand binding on VLA-4 – Jurkat cells, Mn2+ activated, primary screen (AID 529);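 on inhibition: 0% = Mn2+ stimulated cells lacking compound and 100% = ligand binding without Mn2+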
Settings: LDV-FITC binding with Mn2+, flow cytometry; stronger effect = higher value, screened at 10 µM (by protocol), 100% = Mn2+-driven binding gain fully reversed unless noted

| SMILES | inhibition |
| --- | --- |
| Cc1nc2c([nH]1)C1(CCN(Cc3ccccc3)CC1)C(C#N)=C(N)O2 | inconclusive |
| CCOC(=O)c1[nH]c(C)c(C(=O)Nc2cccc(Cl)c2C)c1C | inconclusive |
| Cc1nn(Cc2ccc(Cl)cc2)c(C)c1NC(=O)C1CC=CCC1C(=O)O (stereo unspecified) | inactive: -12% |
| Cc1cc(C)n(CCc2nc3c4ccccc4nc(SCc4ccc(C#N)cc4)n3n2)n1 | inconclusive |
| CC(=O)N1CCCc2cc(S(=O)(=O)Nc3ccc4c(c3)OCO4)ccc21 | inconclusive |
| CCOC(=O)c1[nH]c(C)c(C(=O)Nc2cc(Cl)ccc2C)c1C | inconclusive |
| O=C(C1CC1)N1CCN=C1SCc1ccc(Cl)cc1 | inconclusive |
| CCCc1noc2c1C(c1ccoc1)C(C#N)=C(N)N2 (stereo unspecified) | inactive: 12% |
| COc1cc(OC)cc(-c2nnc(SCC(=O)N3CCCCC3)o2)c1 | inconclusive |
| CCOC(=O)c1c[nH]c2c3c(ccc2c1=O)CCCC3 | inconclusive |
| CCC(=O)Nc1ccc(NC(=O)c2ccccn2)cn1 | inconclusive |
| O=C1CC(c2ccccc2)C(C(=O)Nc2ccccc2F)N1 (stereo unspecified) | inconclusive |
| CCc1nn(CC(=O)NCCCN(CC)Cc2ccccc2)c(=O)c2cc3sccc3n12 | inconclusive |
| Cc1ccc(-c2nc(CS(=O)CC(=O)NCc3ccccn3)c(C)o2)cc1 (stereo unspecified) | inconclusive |
| O=C(CSc1ccc2nnc(-c3ccccc3)n2n1)N1CCCCC1 | inactive: -18% |
| CCOc1ccccc1C1C(C#N)=C(N)Nc2onc(-c3ccccc3)c21 (stereo unspecified) | active: 51% |
| Cc1ccc2nc(NC(=O)C3CCN(S(=O)(=O)c4cccs4)CC3)sc2c1 | inconclusive |
| CCOC(=O)N1CCC(NC(=O)c2cc(C(=O)Nc3ccc(OC)c(OC)c3)ccc2CO)CC1 | 60% |
| COC(=O)C1(C)Nc2ccccc2C(=O)N1c1ccccc1C (stereo unspecified) | inconclusive |
| CCOC(=O)N1CCC(C(=O)Nc2ccc(OCC)cc2)CC1 | inactive: 7% |
| CCN(CC)C(=O)CSC1=Nc2ccccc2C2=NC(Cc3c[nH]c4ccccc34)C(=O)N12 (stereo unspecified) | inconclusive |
| CC(C)Oc1ccc(C(=O)N(CN2CCCC2=O)c2ccc(F)cc2)cc1 | inconclusive |
| CCCCNC(=O)CS(=O)Cc1nc(-c2cccc(Cl)c2)oc1C (stereo unspecified) | inconclusive |

| SMILES | inhibition |
| --- | --- |
| O=c1oc2c3c4c(cc2cc1-c1nc2ccccc2[nH]1)CCCN4CCC3 | inconclusive |
| Cc1cc2c(c(=O)o1)C1(C(=O)N(CC(=O)O)c3ccccc31)C(C#N)=C(N)O2 (stereo unspecified) | inconclusive |
| Cc1cccc(Nc2nn3c(=O)c4ccccc4nc3s2)c1 | inconclusive |
| CCN1CCN(CCCNC(=O)c2cc3cc4ccc(OC)cc4nc3o2)CC1 | inconclusive |
| O=C(CCCn1c(=S)[nH]c2cc3c(cc2c1=O)OCO3)N1CCN(c2ccccc2F)CC1 | inconclusive |
| CC(=O)c1c(C)[nH]c(C(=O)NCCC2=CCCCC2)c1C | inconclusive |
| Cc1ccc(C(=O)c2cc3c(cc2N)OCCO3)cc1 | inconclusive |
| CCCCOc1ccc(C2C3CN(C(=O)OCC)CC=C3C(C#N)=C(N)C2(C#N)C#N)cc1OC (stereo unspecified) | inconclusive |
| CCOC(=O)N1CCN(C(=O)C(C)(C)Oc2ccc(Cl)cc2)CC1 | inconclusive |
| COC(=O)c1ccc(CSc2nc3c(cnn3-c3ccc(F)cc3)c(=O)[nH]2)o1 | inactive: -1% |
| c1ccc(-c2noc(CSc3nnnn3C3CCCCC3)n2)cc1 | inconclusive |
| CC(C)Sc1oc(-c2ccco2)nc1S(=O)(=O)c1ccc(F)cc1 | inconclusive |
| C=CCn1c(SCCCC)nc(O)cc1=O | inactive: -28% |
| CC(C)CC1N=C2c3ccccc3N=C(SCc3cc(=O)n4ccccc4n3)N2C1=O (stereo unspecified) | inconclusive |
| CCN(CC)S(=O)(=O)c1ccc2oc(C(=O)N3CCCCCC3)c(C)c2c1 | inconclusive |
| Cc1ccc(C)c(-n2c(CNC(=O)c3ccco3)nnc2SCC(=O)N2CCc3ccccc32)c1 | inactive: 2% |
| COc1ccccc1-c1nnc(SCC(=O)N2CCOCC2)o1 | inconclusive |
| Cc1ccc(-c2ccc(SCC(=O)Nc3nonc3C)nn2)cc1 | inactive: 4% |
| CCc1ccc(NC(=O)CSc2nnc(Cn3c(=O)sc4ccccc43)n2C)cc1 | inconclusive |
| CCN(CC)CCCNC(=O)c1cc(-c2ccc(Cl)c(Cl)c2)on1 | inactive: 6% |
| CN(C)CCCNC(=O)c1ccc2[nH]c3ccccc3c2c1 | inactive: -6% [stronger effect = higher value, 100% = Mn2+-driven binding gain fully reversed, screened at 10 µM (by protocol)] |
| Cc1nc2sc(C(c3cccc(F)c3)N3CC(C)OC(C)C3)c(O)n2n1 (stereo unspecified) | inconclusive |
| COC(=O)c1ccc(Sc2ccc(C)cc2)c(N)c1 | inconclusive |
| CCOC(=O)N1CCN(c2c(NC3CCN(Cc4ccccc4)CC3)c(=O)c2=O)CC1 | inconclusive |

| SMILES | inhibition |
| --- | --- |
| COc1ncnc2c1N=C1CC(C)(C)CC(N)=C1S2 | inconclusive |
| O=S(=O)(Cc1ccccc1)/C1=C(\N2CCOCC2)CCCCCC1 | inconclusive |
| Cc1cc(NC(=O)c2cccc(COc3ccc(Br)cc3)c2)no1 | inconclusive |
| COC(=O)c1[nH]c2ccc(C)cc2c1NC(=O)CN1CCCC(C)(C)C1 | inconclusive |
| O=C(CN1CCN(C(=O)c2ccco2)CC1)Nc1cc(C(F)(F)F)ccc1Cl | inconclusive |
| O=C1N2c3ccccc3CCc3cccc(c32)C1(O)C(F)(F)F (stereo unspecified) | inactive: -7.5% |
| CCOC(=O)c1csc(Nc2nc3ccc(F)cc3s2)n1 | inconclusive |
| CC1Cc2ccccc2N1C(=O)Cn1c(=O)oc2cc(S(=O)(=O)NC3CCCC3)ccc21 (stereo unspecified) | inconclusive |
| CCOC(=O)C1C(=O)C=C(c2ccc(OC)cc2)CC1c1ccco1 (stereo unspecified) | inconclusive |
| COc1ccc(C2c3c(oc4ccccc4c3=O)C(=O)N2c2ccccn2)cc1 (stereo unspecified) | inconclusive |
| COC(=O)c1cc2sc(Cl)cc2n1CC(=O)N1CCCc2ccccc21 | inconclusive |
| CC(=O)NCCn1c(SCC(=O)OCc2ccccc2)nc2ccccc2c1=O | inconclusive |
| COc1ccccc1N1CCN(C(CNS(=O)(=O)c2cc(F)ccc2F)c2cccnc2)CC1 (stereo unspecified) | inconclusive |
| N#CCCN1CCN(S(=O)(=O)c2ccc(S(=O)(=O)N3CCCCCC3)cc2)CC1 | inconclusive |
| Cc1nc2sc(C(c3ccco3)N3CCN(c4cccc(Cl)c4)CC3)c(O)n2n1 (stereo unspecified) | inconclusive |
| COc1ccc(N2CCN(C(c3cccc(OC)c3OC)c3nnnn3C3CCCC3)CC2)cc1 (stereo unspecified) | inconclusive |
| Cc1c2cn[nH]c(=O)c2c(C)n1Cc1ccc(F)cc1 | inconclusive |
| Cc1nc2ccc(S(=O)(=O)NCC(=O)N3CCC(C)CC3)cc2s1 | inactive: 26% |
| Cc1ccc(N(CC(=O)Nc2ccc3c(c2)OCCO3)S(=O)(=O)c2c(C)n[nH]c2C)cc1 | inconclusive |
| CC(C)c1[nH]nc2c1C1(CCN(Cc3ccccc3)CC1)C(C#N)=C(N)O2 | inconclusive |
| CCN1CCN(C(=O)C2CCN(Cc3nc(-c4ccc(Cl)cc4)oc3C)CC2)CC1 | inconclusive |
| C=CCNc1ncnc2c1[nH]c1ccc(Cl)cc12 | inconclusive |
| CCOc1ccc(C2N(c3ccc(OC)cc3)C(=O)C3CCCN32)cc1OC (stereo unspecified) | inactive: -2% |
| CCCCNC(=O)CC1N=C2c3ccccc3N=C(SCC(=O)Nc3ccccc3OC)N2C1=O (stereo unspecified) | inconclusive |

Copied from the list.
inhibition with O=C1N2c3ccccc3CCc3cccc(c32)C1(O)C(F)(F)F (stereo unspecified) reads inactive: -7.5%
inhibition with CCN1CCN(C(=O)C2CCN(Cc3nc(-c4ccc(Cl)cc4)oc3C)CC2)CC1 reads inconclusive
inhibition with COc1ccccc1N1CCN(C(CNS(=O)(=O)c2cc(F)ccc2F)c2cccnc2)CC1 (stereo unspecified) reads inconclusive
inhibition with CCOc1ccc(C2N(c3ccc(OC)cc3)C(=O)C3CCCN32)cc1OC (stereo unspecified) reads inactive: -2%
inhibition with Cc1nc2sc(C(c3ccco3)N3CCN(c4cccc(Cl)c4)CC3)c(O)n2n1 (stereo unspecified) reads inconclusive

The listing continues.

| SMILES | inhibition |
| --- | --- |
| O=C(C1CCN(S(=O)(=O)c2cccc3cccnc23)CC1)N1CCn2c1nc1ccccc12 | inactive: -15% |
| Cc1cccc(NC(=O)Cn2cnc3ccc(S(=O)(=O)N4CCC(C)CC4)cc3c2=O)n1 | inconclusive |
| CSc1nc2c(c(=O)n1Cc1ccccc1)SC(C)C2 (stereo unspecified) | inconclusive |
| CC(NC(=O)Cc1cccs1)C(c1cccs1)N1CCOCC1 (stereo unspecified) | inactive: 14% |
| COCCNC(=O)CS(=O)Cc1nc(-c2ccccc2C)oc1C (stereo unspecified) | inconclusive |
| Cn1c(=O)cc(OCC(=O)NCCCN2CCN(c3ccccc3F)CC2)c2ccccc21 | inactive: -10% |
| Cc1cc2cc(CNC(=O)Nc3ccccc3)ccc2n1C | inconclusive |
| O=S(=O)(NCC(c1cccnc1)N1CCN(c2ccccc2)CC1)c1cccs1 (stereo unspecified) | inconclusive |
| CNC(=O)c1ccsc1NC(=O)CN1C(=O)CCC1=O | inactive: -30.5% |
| COc1ccc(Cc2nnc(-c3cccc(C)c3)o2)cc1OC | inconclusive |
| O=C(Nc1ccc(OC(F)(F)F)cc1)C1CCCN(S(=O)(=O)c2cccnc2)C1 (stereo unspecified) | inactive: 15% |
| COc1ccc(Cn2c(=O)[nH]c3cc(C(=O)NCc4ccc5c(c4)OCO5)ccc3c2=O)cc1 | inconclusive |
| CCCCOC(=O)n1c(SCC(=O)N(CC)CC)nc2ccccc21 | inactive: 4.5% |
| CCOC(=O)C1CCN(CC(O)COc2ccc(C(C)=O)cc2)CC1 (stereo unspecified) | inactive: -23% |
| COC(=O)Cc1c(C)nc2nc[nH]n2c1=O | inconclusive |
| CCn1cc(C(=O)NC2CCC(C)CC2)c(=O)c2cc(S(=O)(=O)N3CCCCC3)ccc21 (stereo unspecified) | inactive: 0% |
| O=C(C(Cc1ccccc1)n1cccc1)N1CCN(Cc2ccccc2)CC1 (stereo unspecified) | inconclusive |
| CC(CCc1ccco1)NC(=O)Cn1ncc2c(=O)oc3ccccc3c21 (stereo unspecified) | inconclusive |
| CN(C)c1ccc(CNn2cnnc2)cc1 | inactive: -9% |
| Cc1ccc(-c2noc(CCC(=O)NCCN3CCc4ccccc4C3)n2)cc1 | inconclusive |
| CC(c1nnc(SCC(=O)Nc2sccc2C#N)n1-c1ccc(Cl)cc1)N(C)C (stereo unspecified) | inconclusive |
| CCOC(=O)/C(C#N)=C1\Nc2ccccc2N=C1N(CC(C)C)CC(C)C | inconclusive |
| Cc1c(C(=O)NC(C)C)oc2c1-c1[nH]ncc1CC2 | inconclusive |
| Cc1ccccc1S(=O)(=O)Cc1ccc(C(=O)N2CCN(C3CCCCC3)CC2)o1 | inconclusive |
